Library screen at single concentrations

Sequences of proteins named here, by UniProt entry; tags and fusion partners are left off.
UniProt P9WPC5, whole entry: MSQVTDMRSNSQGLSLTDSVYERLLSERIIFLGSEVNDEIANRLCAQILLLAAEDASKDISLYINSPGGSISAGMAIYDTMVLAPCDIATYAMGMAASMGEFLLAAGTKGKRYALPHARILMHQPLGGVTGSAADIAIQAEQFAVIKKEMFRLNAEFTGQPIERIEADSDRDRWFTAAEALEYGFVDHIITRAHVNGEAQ
UniProt P9WPC3, whole entry partner: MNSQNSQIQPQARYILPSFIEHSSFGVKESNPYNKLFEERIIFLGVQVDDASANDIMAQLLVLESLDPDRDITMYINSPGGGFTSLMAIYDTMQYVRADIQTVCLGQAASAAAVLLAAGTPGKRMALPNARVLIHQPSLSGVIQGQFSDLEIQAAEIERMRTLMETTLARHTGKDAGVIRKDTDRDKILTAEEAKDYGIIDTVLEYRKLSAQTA
UniProt P9WFT3, whole entry: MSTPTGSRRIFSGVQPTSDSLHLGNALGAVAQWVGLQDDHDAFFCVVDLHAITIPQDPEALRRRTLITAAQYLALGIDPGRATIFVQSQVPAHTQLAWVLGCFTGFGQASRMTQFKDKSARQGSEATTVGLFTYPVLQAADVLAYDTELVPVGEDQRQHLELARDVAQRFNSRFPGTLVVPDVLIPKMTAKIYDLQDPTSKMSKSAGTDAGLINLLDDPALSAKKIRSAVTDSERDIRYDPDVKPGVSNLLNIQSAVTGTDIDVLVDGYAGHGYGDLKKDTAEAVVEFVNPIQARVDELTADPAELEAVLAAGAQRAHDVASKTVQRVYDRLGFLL
UniProt P9WNZ1, whole entry: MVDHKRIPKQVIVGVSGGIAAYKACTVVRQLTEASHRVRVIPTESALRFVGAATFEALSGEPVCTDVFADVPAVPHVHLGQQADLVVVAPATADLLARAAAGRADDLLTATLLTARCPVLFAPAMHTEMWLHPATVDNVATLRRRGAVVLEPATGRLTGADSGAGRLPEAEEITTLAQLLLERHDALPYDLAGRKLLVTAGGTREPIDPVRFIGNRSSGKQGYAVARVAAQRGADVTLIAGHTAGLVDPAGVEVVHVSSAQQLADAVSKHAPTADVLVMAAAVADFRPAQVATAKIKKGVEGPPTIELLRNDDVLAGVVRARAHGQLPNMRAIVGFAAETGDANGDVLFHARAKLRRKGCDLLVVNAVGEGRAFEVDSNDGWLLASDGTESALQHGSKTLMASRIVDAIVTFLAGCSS

ClpP1P2: 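ClpP1P2, Mycobacterium tuberculosis (UniProt P9WPC5 and UniProt P9WPC3). Protease assay of ClpP1P2, read by the AMC dye that it sets free. Tested at 50 µM. Direction is inferred from only a few compounds that gave an IC50; most scored high, so higher reads as stronger inhibition. Most other retested compounds had strongly negative values. About 69,000 compounds were tested under these conditions; 0.015% (about 10) showed 50% or more at least once.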
Toxoplasma: 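Assay of Toxoplasma gondii numbers, read through their beta-galactosidase reporter with a colour substrate. Tested at 10 µM. The record gives no direction; the compounds picked for IC50 retests had high values, so higher reads as fewer parasites. Size under these conditions: about 67,000 compounds, about 260 of them at 50% or above in at least one test.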
MtTrpRS: 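Enzyme assay of tryptophanyl-tRNA synthetase; the read-out is not stated. Target: Tryptophan-tRNA ligase, Mycobacterium tuberculosis (UniProt P9WFT3). Compounds at 10 µM. Higher most likely means stronger inhibition; the record gives no direction and few retests gave an IC50. About 65,000 compounds were tested under these conditions; 0.098% (about 64) showed 50% or more at least once.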
CoaBC: 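Enzyme assay of CoaBC with a phosphate dye (Biomol Green) read at 650 nm. Target: Coenzyme A biosynthesis protein CoaBC, Mycobacterium tuberculosis (UniProt P9WNZ1). Tested at 30 µM. Higher reads as stronger inhibition, judged from the few compounds that gave an IC50. Most strong results did not repeat in a second test. Size under these conditions: about 67,000 compounds, about 40 of them at 50% or above in at least one test.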

The filed quantity is “Percent Effect” (%). The controls that fix the scale are not given in the record; negative values are as filed. Compounds were drawn at random from those tested, without regard to their results. A dash means the value is not listed here; it may have been measured.

compound | ClpP1P2 | Toxoplasma | MtTrpRS | CoaBC
CCC(C)(C)NC(=O)CN1C=Nc2ccccc2S1(=O)=O | -13.2% | 2.854% | -3.241% | 1.956%
CN1CCN(Cc2ccccc2Oc2ccc(C(N)=O)cn2)CC1 | -0.9032% | -7.324% | 2.401% | -3.361%
Cn1cccc1C(=O)N1CCn2nnc(COc3cccnc3)c2C1 | 6.47% | - | -5.577% | 8.316%
Cc1cnc(C)c(N2CCC(c3nccn3Cc3cscn3)CC2)n1 | 1.022% | 4.468% | -2.991% | 1.028%
COc1cccc(C(=O)Nc2ccc(OC3CCN(C)CC3)cc2)c1 | -10.21% | 25.87% | -6.449% | 3.498%
COc1ncc(NCc2ccc(Cl)c(Cl)c2)cc1C(N)=O | -47.75% | 8.606% | -2.147% | 3.439%
Fc1cc(F)cc(CN2CCC(c3cc4ncccc4cn3)CC2)c1 | -6.563% | - | -1.97% | 4.988%
CN(Cc1cccs1)S(=O)(=O)c1ccc(C(F)(F)F)nc1 | -9.934% | 2.837% | 2.524% | -9.796%
O=C(O)C(F)(F)F.O=C(O)C(F)(F)F.[H][C@@]12CN(Cc3nccs3)C[C@]1([H])OCCN2c1ccc(C)nn1 | - | -7.235% | - | -
COc1ccc(C2CCN(C(=O)c3ncccc3OC(C)C)C2)cc1 (stereo not drawn) | 19.08% | -1.658% | 2.178% | 1.375%
Cc1noc(CN2Cc3ccccc3CC2c2nnc(C)o2)n1 (stereo not drawn) | 6.748% | -0.886% | -2.737% | -2.051%
Cc1ccc(C(F)(F)F)cc1C(=O)N[C@H]1CN(CCO)C[C@@H]1C1CC1 | -10.03% | 0.5187% | -2.113% | 7.613%
CCOC(=O)Cc1cs/c(=N/C(=O)COc2cnc(C)cc2O)[nH]1 | -12.49% | 20.43% | 2.169% | 0.8861%
Cn1cc(N2CCC(NC(=O)c3ccccc3F)C2=O)cn1 (stereo not drawn) | 1.834% | 2.609% | 4.837% | 15.02%
CNC(=O)[C@@H]1COC[C@H]2CN(C(=O)c3ccc(C)c(F)c3)C[C@H]21 | -0.4081% | - | -3.453% | 14.16%
[H][C@@]12CCC(=O)N(CCc3c[nH]cn3)[C@]1([H])CCN(Cc1nccn1C)C2 | - | 26.79% | - | -
COc1ccccc1OCc1cc(C(=O)N2CCN[C@H](C)C2)n[nH]1 | -8.557% | -3.693% | -0.5418% | 0.2132%
COCCN1CCOCC2(CCCN(Cc3ccc(C)o3)C2)C1.O=C(O)C(F)(F)F.O=C(O)C(F)(F)F (stereo not drawn) | - | -8.654% | - | -
CCc1nc(C)c(C(=O)NCCNC(=O)c2cccs2)s1 | -5.202% | 1.048% | 14.79% | -0.9126%
CCc1nc(CN(C)C2CCN(Cc3ccc(Cl)s3)C2)no1 (stereo not drawn) | 2.314% | -1.979% | 0.8497% | 0.7634%
CN(CCC#N)C(=O)CN1CCCC1c1ccsc1 (stereo not drawn) | 0.6125% | -2.046% | 1.458% | 3.035%
NC(=O)CN1CCC(C(=O)NCc2ccc3c(c2)OCCCO3)CC1 | 3.526% | 7.355% | 1.019% | -3.415%
O=C1CCC(c2ccc(Cl)cc2)=NN1CN1CCCCCC1 | -17.08% | 0.8738% | 0.4068% | 0.8861%
[H][C@]12CC[C@]([H])(CN(C(C)=O)C1)N(S(=O)(=O)c1ccc(F)cc1Cl)C2 | - | 11.59% | - | -
CCCc1nnsc1C(=O)NCC1CCN(C(=O)c2ccncc2)CC1 | -7.711% | -3.303% | -0.4691% | 1.373%
O=C1CCc2ccccc2N1CCCn1cnnn1 | -7.534% | -1.737% | 0.08136% | 11.88%
Cc1ccccc1CC(=O)NS(=O)(=O)c1cccc2cnccc12 | 2.388% | -3.32% | 4.756% | 4.994%
Cn1ccnc1CNC1CCCN(Cc2noc(C3CC3)n2)C1 (stereo not drawn) | -0.4513% | -4.385% | 2.864% | -1.493%
O=C(O)C(F)(F)F.O=C(O)C(F)(F)F.[H][C@@]12CN(Cc3ccsc3)CCC[C@]1(C(=O)O)CN(CCOC)C2 | - | -3.437% | - | -
COCCCn1ccc(NS(=O)(=O)c2cc(C)c(F)cc2F)n1 | -22.7% | 22.59% | -1.977% | -0.7595%
COCCN1CC(=O)N(C(C)C)C(C)(C)C1 | -14.3% | 2.955% | -6.147% | -1.151%
O=C(CCOc1ccccc1)N1CCCC(n2cncn2)C1 (stereo not drawn) | -11.34% | -14.01% | 1.337% | 1.579%
O=C1[C@H]2CC[C@H](CN(C3CCOCC3)C2)N1Cc1cscn1 | -13.09% | - | 3.762% | 2.683%
CC1CCN(c2ncc3c(n2)CN(C2CCS(=O)(=O)C2)C3=O)CC1 (stereo not drawn) | 15.91% | 8.475% | 1.577% | -0.3444%
COc1ccc(F)cc1S(=O)(=O)N1CCN(CCn2ccnc2)CC1 | -8.658% | 1.137% | 3.099% | 3.39%
Cc1ccc(C(=O)N2CC[C@H]3[C@H]2CCN3CC2CCOCC2)cc1F | -5.94% | - | -0.07582% | -35.97%
CCC1(CO)CCCN(C(=O)c2cc(COc3ccccc3F)[nH]n2)C1 (stereo not drawn) | 10.31% | 11.98% | 0.129% | -0.3367%
Cc1cc(C(=O)N2C[C@@H]3[C@@H](C2)OCC(=O)N3CC2CC2)no1 | -11.24% | - | -3.065% | -27.27%
Cc1oc(-c2ccsc2)nc1CNCCn1cccn1 | -20.04% | -1.654% | -5.218% | 2.215%
COc1nc(C)c(C(=O)N(C)Cc2nc(-c3ccccn3)no2)s1 | 3.115% | -0.3304% | -4.796% | -6.25%
CC(C)(N)c1cn([C@@H]2c3ccccc3C3(CCNCC3)[C@H]2O)nn1 | 3.025% | -10.46% | 4.155% | -30.57%
Cc1c(CC(=O)N2CCN(CC(F)(F)F)CC2)nnn1-c1ccccc1 | -3.195% | 6.87% | 2.071% | -2.273%
CCC(NC(=O)C1CCN(S(C)(=O)=O)CC1)c1ccc(OC)cc1 (stereo not drawn) | -17.47% | 7.599% | -2.389% | 0.7614%
Cc1ccc(C(=O)N2CCN(S(C)(=O)=O)CC2)cc1N1CCNC1=O | -11.37% | -0.8811% | 6.217% | -1.786%
CCNC(=O)N1CCC(NC(=O)NCCc2cc(F)cc(F)c2)C1 (stereo not drawn) | -8.727% | -0.9346% | -0.8249% | -2.73%
Cc1cc(CNCC2(O)CCOCC2)ccc1Br | -6.882% | 11.32% | -1.398% | 3.804%
COc1coc(CN2CCCC(CCc3ccccc3F)C2)cc1=O (stereo not drawn) | -10.67% | -2.14% | 11.43% | -1.29%
Cc1cccc(CN2C[C@@H]3CN(C(=O)c4cnoc4C)C[C@@H]3C2=O)n1 | 7.136% | - | -7.849% | 7.593%
O=C(Nc1ccc(F)cc1)C1CNCCN1C(=O)CSc1ccncc1 (stereo not drawn) | 8.968% | -19.01% | 3.665% | 3.96%
Cc1cc(C(=O)N2CCCC2)ccc1NCC(=O)N1CCOCC1 | -3.249% | 4.503% | 2.175% | 2.389%
Oc1cccc(CNCC2CCCO2)c1 (stereo not drawn) | -0.9243% | 0.5618% | 7.803% | -1.304%
O=C(O)C(F)(F)F.[H][C@@]12OCCN(C(=O)C3CCOCC3)[C@@]1([H])CC[C@H]2Oc1cccnc1 | - | 0.8136% | - | -
COCCO[C@H]1COCCN(C2CCN(C)CC2)C1 | 1.027% | -0.2231% | 7.704% | -6.876%
CC(C)c1nccn1C1CCCN(C(=O)c2cn3cccnc3n2)C1 (stereo not drawn) | -23.42% | -34.6% | -6.768% | 5.342%
COc1cc(-n2cccc2)c(Cl)cc1C(=O)NS(C)(=O)=O | -3.378% | -10.31% | -0.9412% | 13.59%
CCc1nc(CNC2CCN(S(C)(=O)=O)CC2)cs1 | 3.891% | 2.078% | 4.279% | -3.444%
COCc1nc(C(=O)N2CCCC2c2noc(C)n2)cs1 (stereo not drawn) | 1.509% | 5.497% | -6.006% | 3.69%
Cc1ccc(SCCN(C)C(=O)c2cn(CCN)nn2)cc1 | 5.175% | 1.839% | -2.716% | 2.195%
O=C(CCn1cccc1)NCc1ccc(CN2CCCCCC2)o1 | -20.14% | 9.492% | -3.393% | 4.875%
O=C(NC1CCCN(Cc2c(F)cccc2F)C1)c1cnccn1 (stereo not drawn) | -3.489% | 4.36% | -2.352% | -0.3822%
CNC(=O)CN1C(=O)CCC12CCCN(Cc1ccccc1F)C2 (stereo not drawn) | -10.92% | -2.378% | -5.093% | 0%
COc1cc(C(=O)N(C)C(C)Cc2cc(C)ccn2)ccn1 (stereo not drawn) | 8.456% | -18.77% | -4.633% | 0.7426%
CC1CCCN(C(=O)NCC(F)F)C1 (stereo not drawn) | -13.16% | -5.34% | 0.4442% | 1.241%

Repeated from the top, 5 entries:

compound,ClpP1P2,Toxoplasma,MtTrpRS,CoaBC
CCC(C)(C)NC(=O)CN1C=Nc2ccccc2S1(=O)=O,-13.2%,2.854%,-3.241%,1.956%
CN1CCN(Cc2ccccc2Oc2ccc(C(N)=O)cn2)CC1,-0.9032%,-7.324%,2.401%,-3.361%
Cn1cccc1C(=O)N1CCn2nnc(COc3cccnc3)c2C1,6.47%,-,-5.577%,8.316%
Cc1cnc(C)c(N2CCC(c3nccn3Cc3cscn3)CC2)n1,1.022%,4.468%,-2.991%,1.028%
COc1cccc(C(=O)Nc2ccc(OC3CCN(C)CC3)cc2)c1,-10.21%,25.87%,-6.449%,3.498%

From ChEMBL document CHEMBL3988442, “University of Dundee, Small-Polar-MMV Screening Library” (2021).